{
  "sequences": {"note": "Protein sequences, listed by entry. Tags and fused reporters are not part of them. Lines headed by an entry give the natural chain unless they say otherwise; changes in a name come on top.", "UniProt P23582": "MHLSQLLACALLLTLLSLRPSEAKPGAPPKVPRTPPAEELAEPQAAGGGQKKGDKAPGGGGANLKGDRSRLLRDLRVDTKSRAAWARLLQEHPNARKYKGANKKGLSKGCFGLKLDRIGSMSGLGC"},
  "source": "patent US9956267B2",
  "about": "“Method of treating skeletal dysplasias using vessel dilator” (University of South Florida, priority 2010, dated 2018)",
  "origin": "cited, not measured here",
  "settings": "in vivo; cited from earlier work",
  "note": "Some of these results come from one statement about several compounds together.",
  "data": [
    {"substance": "CNP: 22 amino acid peptide having a 17-amino acid ring, generated from the natriuretic peptide precursor C gene (GLSKGCFGLKLDRIGSMSGLGC; CNP-22; UniProt P23582 105-126, looked up)", "values": [
      {"measurement": "duration of biologic effects", "value": "< 30", "unit": "min"}
    ]}
  ]
}
